The values below are quoted from earlier work in patent US20070031367A1, “Composition and method for neck skin firming” (priority 2004, published 2007).

Read-outs that look alike come from different tables or passages of the source.

The conditions of the data set: comparison chart of pepper varieties and pure capsaicin, extract as sourced from vendor.

Regarding `COc1cc(CNC(=O)CCCC/C=C/C(C)C)ccc1O` [Capsaicin, N-canillyl-8-methyl-6-(E)-noneamide], the “Scoville Units” value is listed as “about 16,000,000 Scoville Units”. The “Scoville Units” value (listed as Pure Capsaicin) is on record as 16,000,000 Scoville Units.
